Values joined by “and” are separate entries in the source; they are usually repeats but may differ in a detail not shown here. Identical values can stand only once. Inconclusive means that the source gave no clear call. Such entries were picked first, then a sample of the others. Potencies of inconclusive entries are doubtful fits and often do not repeat. The source holds several records for some structures; these can differ, active in one and inactive in another. Active and inactive are the calls of the source. The calls were made as follows: active = hit-call score of the fitted dose curve at least 0.9, where 1 is the maximum; inconclusive = response in the unintended direction; inactive = score below 0.9.
The molecules below were run against human Thyroid Receptor alpha (THRa1), THRA (gene 7067) (UniProt P10827) (assay: ATG_THRa1_TRANS: Attagene TRANS-FACTORIAL HepG2 Assay for human Thyroid Receptor alpha (THRa1) (AID 2283014)).
In short: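 Transcripts from GAL4-UAS-driven reporters, measured after 24 h compound exposure by RT-PCR plus capillary electrophoresis of 6-FAM-labeled fragments, were fitted for gain of signal relative to DMSO. Cells: transiently transfected HepG2 expressing NR-Gal4 chimeras.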

By UniProt entry, the sequences of proteins in these tests, tags left out. Where a name states a change or a piece, a line headed by the entry shows the natural chain unless it says otherwise.
UniProt P10827: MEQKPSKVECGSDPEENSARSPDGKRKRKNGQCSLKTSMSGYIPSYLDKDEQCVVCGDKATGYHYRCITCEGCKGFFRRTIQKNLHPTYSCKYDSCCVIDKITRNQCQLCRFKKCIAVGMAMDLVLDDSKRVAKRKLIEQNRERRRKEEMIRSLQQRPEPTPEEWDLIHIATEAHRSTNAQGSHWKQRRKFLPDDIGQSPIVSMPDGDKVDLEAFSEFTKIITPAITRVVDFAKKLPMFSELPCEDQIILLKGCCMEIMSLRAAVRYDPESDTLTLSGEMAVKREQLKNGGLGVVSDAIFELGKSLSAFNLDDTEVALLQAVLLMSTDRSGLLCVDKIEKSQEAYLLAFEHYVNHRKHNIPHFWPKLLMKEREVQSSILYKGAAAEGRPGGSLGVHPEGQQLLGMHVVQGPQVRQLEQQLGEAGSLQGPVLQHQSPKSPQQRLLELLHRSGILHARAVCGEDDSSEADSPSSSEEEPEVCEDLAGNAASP
UniProt P11473: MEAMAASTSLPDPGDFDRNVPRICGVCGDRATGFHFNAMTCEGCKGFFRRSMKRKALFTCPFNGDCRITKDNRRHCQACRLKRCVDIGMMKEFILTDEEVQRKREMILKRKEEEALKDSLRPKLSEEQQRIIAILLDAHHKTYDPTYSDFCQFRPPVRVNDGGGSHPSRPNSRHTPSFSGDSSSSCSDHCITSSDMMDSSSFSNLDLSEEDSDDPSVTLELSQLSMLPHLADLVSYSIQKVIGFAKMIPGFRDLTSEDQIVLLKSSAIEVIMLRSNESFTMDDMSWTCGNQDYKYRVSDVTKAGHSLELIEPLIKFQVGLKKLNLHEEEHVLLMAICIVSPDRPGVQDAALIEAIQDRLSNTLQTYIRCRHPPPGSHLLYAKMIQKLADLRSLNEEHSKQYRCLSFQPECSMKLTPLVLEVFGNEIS

Compound | outcome | AC50
CCC(=O)c1ccccc1 | inactive | 
CCC[CH2][Sn]([Cl])([CH2]CCC)[CH2]CCC | inactive | 
Oc1ccc(Cl)cc1Cc1ccccc1 | inactive | 
ClC1=C(Cl)[C@]2(Cl)[C@H]3[C@H]([C@@H]4C=C[C@H]3C4)[C@@]1(Cl)C2(Cl)Cl | inactive | 
O=c1oc2ccccc2c(O)c1C(CC(O)c1ccc(-c2ccc(Br)cc2)cc1)c1ccccc1 (stereo unspecified) | inactive | 
CCCCC(CC)COC(=O)c1c(Br)c(Br)c(Br)c(Br)c1C(=O)OCC(CC)CCCC (stereo unspecified) | inactive | 
O=C(O)COc1nc(Cl)c(Cl)cc1Cl |  | inconclusive: 9.92 µM
O=C(Cl)OCCOCCOC(=O)Cl | inactive | 
C=CCC1=C(C)C(OC(=O)C2C(C=C(C)C)C2(C)C)CC1=O (stereo unspecified) |  | inconclusive: 0.0131 µM
CC(=[OH+])/C=C(/C)[O-].CC(=[OH+])/C=C(/C)[O-].CC(=[OH+])/C=C(/C)[O-].[Al] | inactive | 
Cc1cccc(OP(=O)(Oc2cccc(C)c2)Oc2cccc(C)c2)c1 |  | inconclusive: 0.0823 µM
Cc1ccccc1C(=O)Nc1cccc(OC(C)C)c1 | inactive | 
Sc1ccccc1 | inactive | inconclusive: 100 µM
O=C(O)C(F)(OC(F)(F)C(F)(F)C(F)(F)F)C(F)(F)F (stereo unspecified) | inactive | 
C=CC(=O)OCC(F)(F)C(F)F | inactive | 
SCc1ccco1 |  | inconclusive: 9.05 µM
CC(C)=CC1C(C(=O)OCc2cccc(Oc3ccccc3)c2)C1(C)C (stereo unspecified) |  | inconclusive: 0.449 µM
CC(C)CCCCCCCOP(=O)(Oc1ccccc1)Oc1ccccc1 |  | inconclusive: 100 µM
CCOc1nc(F)cc2nc(S(=O)(=O)Nc3c(Cl)cccc3Cl)nn12 | inactive | 
CCNS(=O)(=O)C(F)(F)C(F)(F)C(F)(F)C(F)(F)C(F)(F)C(F)(F)C(F)(F)C(F)(F)F |  | inconclusive: 96.5 µM

What follows are molecules tested against human Vitamin D Receptor (VDR), VDR (gene 7421) (UniProt P11473) (assay: ATG_VDR_TRANS: Attagene TRANS-FACTORIAL HepG2 Assay for human Vitamin D Receptor (VDR) (AID 2283022)).
In short: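 Transactivation by an exogenous VDR-Gal4 chimera in transiently transfected HepG2 cells was measured as reporter transcript level 24 hours after chemical treatment. RT-PCR products were analysed by capillary electrophoresis and fitted in the positive direction relative to DMSO.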

Compound | AC50 | outcome
CCC[CH2][Sn]([Cl])([CH2]CCC)[CH2]CCC | active: 1.92 µM | 
ClC1=C(Cl)[C@]2(Cl)[C@H]3[C@H]([C@@H]4C=C[C@H]3C4)[C@@]1(Cl)C2(Cl)Cl |  | inactive
C=CCC1=C(C)C(OC(=O)C2C(C=C(C)C)C2(C)C)CC1=O (stereo unspecified) | inconclusive: 105 µM [middle of 4 runs] | 
Oc1cccc2cccnc12 | inconclusive: 0.11 µM | 
O=C(O)C(F)(OC(F)(F)C(F)(F)C(F)(F)F)C(F)(F)F (stereo unspecified) |  | inactive
CNC(=S)S | inconclusive: 0.179 µM | 
C=CC(=O)OCC(F)(F)C(F)F | inconclusive: 150 µM | 
COP(=S)(OC)SCn1nnc2ccccc2c1=O | inconclusive: 50 µM | 
CC(C)CCCCCCCOP(=O)(Oc1ccccc1)Oc1ccccc1 |  | inactive
CCNS(=O)(=O)C(F)(F)C(F)(F)C(F)(F)C(F)(F)C(F)(F)C(F)(F)C(F)(F)C(F)(F)F | inconclusive: 191 µM | 
COc1ccc(O)c(C(C)(C)C)c1 |  | inactive

Reference: PubChem BioAssay (EPA / NIEHS)
